These are yes or no findings as the source states them, for the method shown. A result given as binding can be weak or reduced; the word gives no strength. Sequences can lack the tags named with a protein.
Assays:
Experiment in all cases: two-hybrid; LexA (BD)/B42 (AD) system, cross-mating of EGY42a (BD + pSH18-34 reporter) and TB50alpha (AD) yeast, beta-galactosidase (X-Gal) staining after 48 h at 25°C; each hetero-interaction tested in both directions
[1] = molecular target: ATHP-1 full length, yeast two-hybrid fusion (C. elegans) (UniProt Q18605)
[2] = molecular target: ATHP-1 C-terminal fragment, yeast two-hybrid fusion (C. elegans)
[3] = molecular target: SIN-3 N-terminal fragment, yeast two-hybrid fusion (C. elegans)

Protein sequences, listed by entry. Tags and fused reporters are not part of them. Lines headed by an entry give the natural chain unless they say otherwise; changes in a name come on top.
UniProt Q18605: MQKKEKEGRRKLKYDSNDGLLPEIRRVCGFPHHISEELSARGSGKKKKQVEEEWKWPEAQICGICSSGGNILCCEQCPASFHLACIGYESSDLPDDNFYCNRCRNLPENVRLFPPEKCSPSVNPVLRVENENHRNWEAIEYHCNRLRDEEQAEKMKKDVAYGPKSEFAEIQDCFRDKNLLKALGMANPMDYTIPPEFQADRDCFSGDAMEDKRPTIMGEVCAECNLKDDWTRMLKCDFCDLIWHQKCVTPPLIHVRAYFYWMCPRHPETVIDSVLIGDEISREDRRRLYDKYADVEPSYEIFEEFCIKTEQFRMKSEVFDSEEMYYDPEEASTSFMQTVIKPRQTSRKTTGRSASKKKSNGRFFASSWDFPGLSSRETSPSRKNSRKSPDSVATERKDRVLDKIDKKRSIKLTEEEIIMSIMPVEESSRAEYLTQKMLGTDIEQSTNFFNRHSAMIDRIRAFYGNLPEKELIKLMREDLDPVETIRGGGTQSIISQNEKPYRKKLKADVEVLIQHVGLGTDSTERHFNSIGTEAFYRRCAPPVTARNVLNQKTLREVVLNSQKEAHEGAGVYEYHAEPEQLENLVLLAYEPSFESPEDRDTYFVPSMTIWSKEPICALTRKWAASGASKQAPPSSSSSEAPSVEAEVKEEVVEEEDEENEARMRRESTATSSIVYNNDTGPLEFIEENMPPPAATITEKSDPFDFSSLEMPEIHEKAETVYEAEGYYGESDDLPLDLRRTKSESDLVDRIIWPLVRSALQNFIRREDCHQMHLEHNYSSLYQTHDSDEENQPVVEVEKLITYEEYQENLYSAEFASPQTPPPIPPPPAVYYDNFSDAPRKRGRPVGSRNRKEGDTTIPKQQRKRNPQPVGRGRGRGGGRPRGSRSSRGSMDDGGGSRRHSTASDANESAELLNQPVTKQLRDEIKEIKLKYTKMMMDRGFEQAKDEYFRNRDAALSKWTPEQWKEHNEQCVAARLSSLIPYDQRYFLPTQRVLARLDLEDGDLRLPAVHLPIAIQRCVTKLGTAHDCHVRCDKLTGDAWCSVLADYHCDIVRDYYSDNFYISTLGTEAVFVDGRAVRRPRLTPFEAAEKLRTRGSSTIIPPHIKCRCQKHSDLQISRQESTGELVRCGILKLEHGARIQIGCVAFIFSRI

B1: MRG-1 full length, yeast two-hybrid fusion (protein, UniProt A7DTF0 1-337)
chain: MSSKKNFEVGENVACIYKGKPYDAKITDIKTNSDGKELYCVHFKGWNNRYDEKIPVGEEKDRIFKGTASEYAEKHNAELPTTALKPKKKSLAAEAPRDDRDDTPGTSKGKKAKSVTIAPVMTADDMKVELPKPLRKILIDDYDLVCRYFINIVPHEYSVDQIIEDYIKTIPVSNEQMRTVDDLLIEYEEADIKITNLALICTARGLVDYFNVTLGSSYQLLYKFERPQYNDLVKKRAMEKGIDITNPTALQDSGFRPSQEYGIVHFLRMLAKLPDYLKLTQWNDHVINRIMIGVHDLIVFLNKNHGKYYRGSSDYQGASNDYYRRSLAADDGVGANQ
[1]
  binding: binds

B2: CFP-1 full length, yeast two-hybrid fusion (protein, UniProt Q9XUE7 1-508)
chain: MSNKEIEDNEDVWKERCMNCIRCNDEKNCGTCWPCRNGKTCDMRKCFSAKRLYNEKVKRQTDENLKAIMAKTAQREAAHQAATTTAPSAPVVIEQQVEKKKRGRKKGSGNGGAAAAAQQRKANIINERDYVPNRPTRQQSADLRRKRTQLNAEPDKHPRQCLNPNCIYESRIDSKYCSDECGKELARMRLTEILPNRCKQYFFEGPSGGPRSLEDEIKPKRAKINREVQKLTESEKNMMAFLNKLVEFIKTQLKLQPLGTEERYDDNLYEGCIVCGLPDIPLLKYTKHIELCWARSEKAISFGAPEKNNDMFYCEKYDSRTNSFCKRLKSLCPEHRKLGDEQHLKVCGYPKKWEDGMIETAKTVSELIEMEDPFGEEGCRTKKDACHKHHKWIPSLRGTIELEQACLFQKMYELCHEMHKLNAHAEWTTNALSIMMHKQPNIIDSEQMSLFNKSQSTSSSASAHGATTPISSTSSSSSSSSKNDDEMEDTAEFLANLAVQKEEETQNN
[2]
  binding: binds
[1]
  binding: binds
[3]
  binding: binds

— paper PMC6868398
